Test results from patent US20090221539A1, “METHOD OF DETECTING AND REDUCING BOAR TAINT USING NUCLEAR RECEPTORS” (UNIVERSITY OF GUELPH, priority 2005, published 2009).
For at least one compound, name, drawing or mass did not settle the structure.

What was measured:
[1] = system: SULT2A1; assay: SULT2A1 activity in primary porcine Leydig cells after treatment with nuclear receptor ligands ([3H]DHEA to DHEAS conversion); assay type: cell-based, pig; settings: primary Leydig cells of mature Yorkshire boars, 24 hours; CITCO 1 μM, TCPOBOP 250 nM, phenobarbital 2 mM, phenytoin 50 μM, rifampicin 10 μM, PCN 10 μM, dexamethasone 0.1 μM, lithocolic acid 100 μM; vs control
Experimental: FIG. 1: Effect of nuclear receptor ligands on SULT2A1 activity in porcine Leydig cells. Primary porcine Leydig cells were isolated from mature Yorkshire boars and the SULT2A1 activity was determined. Leydig cells were cultured in the presence of; CITCO (1 μM), TCPOBOP (250 nM), Phenobarbital (2 mM), Phenytoin (50 μM), Rifampicin (10 μM), PCN (10 μM), Dexamethasone (0.1 μM), Cholic Acid (100 μM), and Lithocolic Acid (100 μM) for 24 hours. Treatments are grouped according to the nuclear receptor affected: constitutive androstane receptor (CAR), pregnane X receptor (PXR), glucocorticoid receptor (GR) and farnesoid X receptor (FXR). Values are presented as means±SE of 3 independent experiments with significant differences indicated (*P<0.05).
Mature Yorkshire boars of 175±6 days obtained from the Arkell Swine Research Station at the University of Guelph, Guelph, ON were used for the isolation of Leydig cells. After slaughter, the testes were immediately removed and transported to the laboratory within five minutes. Testicular tissue was sliced into pieces of 1 cm^2×2-3 mm thickness and 100 g of tissue was incubated for 20 minutes in a shaking water bath at 37° C. with 1 mg/ml collagenase (type 1A), 50 μg/ml DNase and 50 μg/ml trypsin inhibitor in 250 ml of TC 199 Media containing 1 g/L bovine serum albumin and 0.1 g/L L-glutamine. Preparations of purified Leydig cells were obtained by layering the collagenase—dispersed testicular cells onto discontinuous Percoll gradients supplemented with HBSS. The preparations were then centrifuged at 1500×g for 15 minutes at 4° C. and the cells present at the 40-60% interface were collected as outlined previously (Raeside & Renaud 1983). Cell viability was determined by trypan blue exclusion. The typical viability of Leydig cells after this procedure was greater than 90%.
To further understand the molecular mechanisms that control SULT2A1 gene transcription, various nuclear receptor ligands were evaluated for their ability to induce SULT2A1 activity in Leydig cells. […]

[2] = system: 3MI metabolism; assay: 3MI metabolism assay: production of HMOI and 3MOI in primary pig hepatocytes after inducer treatment; assay type: cell-based; settings: for production of 3MOI / production of the 3MI metabolite HMOI: 3-week old male pig hepatocytes, hormones and rifampicin 10 μM, given as increase, FIG. 2 values as percent of control
Experimental: Each data point represents results obtained from 3 separate experiments run in triplicate.
Hepatocytes were prepared by a modification of a collagenase perfusion method described previously (Sinclair et al., 2005). Briefly, one hepatic lobe was immediately catheterized by selecting the largest vessel at the cut end. Blood was then flushed from the liver by perfusion with 25 mL/min of medium containing 10 mM hydroxyethyl piperazine ethane (HEPES), 1 mM EGTA and HBSS (pH 7.4) delivered at 37° C. The lobe was then perfused for 5 minutes with the same medium without EGTA and then with William's E Media (pH 7.4) containing 10 mM HEPES and 0.7 mg/mL collagenase type 1 for 10 to 25 minutes until the hepatocytes appeared to be fully dissociated.
All remaining experimental procedures were carried out under sterile conditions. The lobe was gently minced with a scalpel to disassociate cells in attachment medium containing 10 mM HEPES, 10% (v/v) fetal bovine serum, 1% (v/v) penicillin-streptomycin and 50 Units/L insulin in William's E media (pH 7.4), at 4° C. Cells were filtered through gauze and centrifuged at 15×g for 3 minutes. The cell pellet was washed in attachment media and cell viability was determined by trypan blue exclusion. […] Hepatocytes were then plated on Primaria™ 60 mm tissue culture dishes (VWR International Ltd., Mississauga, ON) at a density of 2.25×10^6 cells in 3.0 mL attachment media, and kept in a incubator at 37° C. supplied with 95% air and 5% CO2. After 4 hours to allow for attachment of the cells, the medium was replaced with serum-free medium that contained 10 mM HEPES, 10 mM pyruvate, 0.35 mM proline, 1% (v/v) penicillin-streptomycin and 50 Units/L insulin in William's E media (pH 7.4) with treatments. For inducer experiments, hepatocytes were treated for 19 hours prior to the determination of P450 activities and 3MI metabolism.
To measure 3MI metabolism in primary cultured hepatocytes, cells were incubated with 500 μM 3MI for 6 hours, after which an equal volume of acetonitrile was added to stop the reaction. The production of metabolites was then determined by HPLC analysis as previously described (Terner et al., in press). Formation of metabolites was determined by interpolation of standard curves made from authentic standards HMOI and 3MOI run in duplicate.

[3] = system: B-actin; assay: Real time PCR gene expression in ligand-treated boar hepatocytes: B-actin housekeeping gene; assay type: cell-based, pig; settings: ligand 8 or 10 hours, compared to DMSO

Row | Structure (SMILES) | SULT2A1 activity [1] | production of 3MOI ([2]; isoproterenol 500 μM) | production of the 3MI metabolite HMOI ([2]; isoproterenol 500 μM) | also measured
1 | CO[C@H]1/C=C/O[C@@]2(C)Oc3c(C)c(O)c4c(O)c(c(/C=N/N5CCN(C)CC5)c(O)c4c3C2=O)NC(=O)/C(C)=C\C=C\[C@H](C)[C@H](O)[C@@H](C)[C@@H](O)[C@@H](C)[C@H](OC(C)=O)[C@@H]1C [Rifampicin] | significantly increased | – | – | 3MI metabolism ([2]; adult male hepatocytes, CITCO 1.0 μM, rifampicin 10 μM): no significant affects; B-actin expression [3]: significantly higher
2 | C[C@@H]1C[C@H]2[C@@H]3CCC4=CC(=O)C=C[C@]4(C)[C@@]3(F)[C@@H](O)C[C@]2(C)[C@@]1(O)C(=O)CO [dexamethasone] | did not affect | – | – | –
3 | C[C@]12CC[C@@H]3c4ccc(O)cc4CC[C@H]3[C@@H]1CC[C@@H]2O [estradiol] | – | did not affect | did not affect | –
4 | C[C@]12CC[C@@H]3c4ccc(O)cc4CC[C@H]3[C@@H]1CCC2=O [estrone] | – | did not affect | did not affect | 3MOI production ([2]; adult male hepatocytes, isoproterenol 500 μM, estrone 10 μM): not affecting
5 | C[C@H](CCC(=O)O)[C@H]1CC[C@H]2[C@@H]3CC[C@@H]4C[C@H](O)CC[C@]4(C)[C@H]3CC[C@]12C [lithocolic acid] | increase in SULT2A1 activity | – | – | –
